# Percent effect of library compounds

Protein sequences, listed by entry. Tags and fused reporters are not part of them. Residues count along the entry.
UniProt Q4DA54, 1-478: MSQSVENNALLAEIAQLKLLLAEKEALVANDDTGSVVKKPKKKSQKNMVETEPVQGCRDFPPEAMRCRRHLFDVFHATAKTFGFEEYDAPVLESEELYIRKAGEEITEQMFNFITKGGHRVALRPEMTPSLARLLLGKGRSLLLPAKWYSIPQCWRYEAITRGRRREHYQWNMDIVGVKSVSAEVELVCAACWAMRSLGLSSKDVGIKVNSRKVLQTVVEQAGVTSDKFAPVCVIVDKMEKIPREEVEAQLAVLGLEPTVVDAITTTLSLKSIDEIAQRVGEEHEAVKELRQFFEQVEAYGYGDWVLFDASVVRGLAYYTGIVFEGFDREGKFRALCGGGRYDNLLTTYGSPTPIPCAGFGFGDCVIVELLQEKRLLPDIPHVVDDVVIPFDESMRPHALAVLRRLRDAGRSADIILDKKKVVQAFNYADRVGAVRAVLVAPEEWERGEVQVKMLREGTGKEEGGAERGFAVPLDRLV
UniProt P9WNZ1, whole entry: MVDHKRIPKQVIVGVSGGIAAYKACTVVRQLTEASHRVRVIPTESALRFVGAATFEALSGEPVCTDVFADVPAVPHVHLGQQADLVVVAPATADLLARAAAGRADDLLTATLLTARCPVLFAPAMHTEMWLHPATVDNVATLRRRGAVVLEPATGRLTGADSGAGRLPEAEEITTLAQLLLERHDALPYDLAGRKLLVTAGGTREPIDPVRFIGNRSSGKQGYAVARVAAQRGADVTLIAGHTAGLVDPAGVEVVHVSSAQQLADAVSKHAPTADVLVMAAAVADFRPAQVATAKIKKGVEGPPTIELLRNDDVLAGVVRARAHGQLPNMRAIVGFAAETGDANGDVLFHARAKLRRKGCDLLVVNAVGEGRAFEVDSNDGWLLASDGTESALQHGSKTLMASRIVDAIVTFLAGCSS

A: 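Assay of Toxoplasma gondii numbers, read through their beta-galactosidase reporter with a colour substrate. Concentration: 10 µM. The record gives no direction; the compounds picked for IC50 retests had high values, so higher reads as fewer parasites. About 67,000 compounds were tested under these conditions; 0.38% (about 260) showed 50% or more at least once.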
B: 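Enzyme assay of histidyl-tRNA synthetase; the read-out is not stated. Target: Histidine-tRNA ligase, Trypanosoma cruzi CL Brener (UniProt Q4DA54). Compounds at 30 µM. Higher reads as stronger inhibition (inferred: compounds with an IC50 in retests scored well above the rest). Of about 69,000 compounds tested this way, about 31 (0.045%) reached 50% or more in at least one test.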
C: 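Enzyme assay of CoaBC with a phosphate dye (Biomol Green) read at 650 nm. Target: Coenzyme A biosynthesis protein CoaBC, Mycobacterium tuberculosis (UniProt P9WNZ1). Concentration: 30 µM. Higher reads as stronger inhibition, judged from the few compounds that gave an IC50. Most strong results did not repeat in a second test. Size under these conditions: about 67,000 compounds, about 40 of them at 50% or above in at least one test.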
D: 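Cell assay of Leishmania donovani living inside macrophages; the read-out is not stated. Concentration: 30 µM. Direction is inferred from retests: higher values go with stronger inhibition. Size under these conditions: about 69,000 compounds, about 1,000 of them at 50% or above in at least one test.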

Each number is a percent effect as filed.
How 0% and 100% were set is not recorded. Most values in the screen are low, and negative values occur.
This is an unselected part of the compounds tested.
Two or more numbers in one place are separate tests of the same structure; such repeats can differ widely.
A dash means the value is not listed here; it may have been measured.

structure | A | B | C | D
COc1ccc(S(=O)(=O)NC(=O)COC2CCCCC2)cc1C | -2.177% | 2.299% | 2.452% | 12.87%
COc1ccc(Cl)cc1NCC(=O)NCCc1ccccn1 | 0.5169% | 3.008% | 1.779% | 0.1014%
CC(NC(=O)c1cc(-c2cccc(Cl)c2)no1)C(=O)N(C)C (centres unmarked) | 4.854% | 1.961% | 1.951% | 38.9%
[H][C@]12CC[C@]([H])(CN(S(=O)(=O)N(C)C)C1)N(C(=O)c1ccc(C)cc1O)C2 | - | - | - | -15.77%
[H][C@@]12CS(=O)(=O)C[C@]1([H])N(C(=O)c1cccc(C)n1)CCN2S(C)(=O)=O | 5.385% | - | - | 5.497%
CCn1cnnc1CNC(=O)N(C)Cc1cccc(Cl)c1Cl | -0.2363% | 4.433% | 1.266% | -4.278%
CCC(C)C(=O)N(C)Cc1cc(F)ccc1N1CCC(OC)CC1 (centres unmarked) | 16.25% | 0.8696% | 4.784% | -1.634%
Cc1cc2n(n1)CC(CNCc1ccc(-n3cccn3)nc1)CN2 (centres unmarked) | -10.87% | 2.662% | 4.255% | 27.04%
CCCN(Cc1nccn1C)C(=O)c1cnn[nH]1 | -12.87% | -5.797% | 6.584% | 13.83%
O=C(O)C(F)(F)F.O=C(O)C(F)(F)F.O=C(O)C(F)(F)F.[H][C@@]12CCN(Cc3ccc(C)o3)C[C@]1([H])[C@@H](CN1CCN(C)CC1)OC2 | 16.37% | - | - | 27.36%
CCc1cc(O)nc(C2CCCN2C(=O)c2cccnc2)n1 (centres unmarked) | 6.063% | 1.075% | 3.272% | 8.016%
O=C(NCc1csc(Br)c1)N1CCC(O)CC1 | -20.05% | 4.373% | 7.846% | 16.41%
COCCN1CCN(Cc2cccc(C(=O)N(C)C)c2)CC1C (centres unmarked) | 5.112% | 2.642% | -2.999% | 1.584%
CC(C)c1nc(C2CCCN(C(=O)c3cccc4c3OCO4)C2)no1 (centres unmarked) | -7.003% | 0% | 4.198% | 13.51%
CC(C)(C)c1nc(CN2CCN(C(=O)c3cnccn3)CC2)cs1 | 11.87% | 7.289% | 7.098% | 33.11%
Cn1ccc(NC(=O)CN2C[C@H]3CC[C@@H]2CN(Cc2ccccn2)C3)n1 | - | 0% | 1.599% | -
Cc1nc(NC2CCN(S(=O)(=O)c3ccccc3)CC2)[nH]c(=O)c1C | -15.99% | 3.714% | -1.37% | -44.14%
[H][C@@]12C[C@H](C(=O)Nc3cccnc3)[C@@]([H])(CN(CC(C)C)C1)O2 | -0.269% | - | - | -20.57%
CCN1CCCC12CCN(C(=O)c1ccsc1)CC2 | - | 6.135% | - | -
CCc1nc(CCNC(=O)NC2CCC(=O)N(C)C2)sc1C (centres unmarked) | -2.252% | -2.174% | -9.476% | -8.952%
c1cnn(CC2CCCCN2c2ncnc3sccc23)c1 (centres unmarked) | -4.075% | 9.544% | -4.911% | 9.721%
O=C(O)C(F)(F)F.[H][C@@]12CC(=O)N(c3ccsc3)[C@@]1([H])CCN2Cc1ccc(C)o1 | -3.977% | - | - | -0.9951%
COC(CNC(=O)N1CCC(n2cncn2)CC1)c1ccccc1 (centres unmarked) | -4.443% | 4.135% | -2.611% | -8.828%
O=C(CN1CCC(c2cc(=O)n3c(n2)CCCCC3)C1)N1CCCCC1.O=C(O)CC(O)(CC(=O)O)C(=O)O (centres unmarked) | -35.43% | - | - | 21.82% & 26.52%
O=C(NC1CC1)C1CCc2nnc(-c3cccnc3)n21 (centres unmarked) | -5.288% | -0.5917% | 5.526% | 9.924%
O=C(c1ccccc1F)N1CC[C@@H]2CN(c3ncccn3)CCO[C@@H]2C1 | - | 8.824% | 2.75% | -
Cc1ccc(N2CC3(CCN(S(=O)(=O)C4CC4)C3)C2)nn1 | -5.964% | 8.021% | 0.8333% | 4.082%
CN1CCC2(COCCN(Cc3cccc(C#N)c3)C2)C1.O=C(O)C(F)(F)F.O=C(O)C(F)(F)F (centres unmarked) | 3.093% | - | - | -13.24%
CN(CC1CCOCC1)C(=O)NCCCN1CCCCC1 | 5.522% | 4.202% | 4.032% | 19.46%
Cc1noc(C)c1C(=O)N1CCCC1(C)C(=O)NC1CCCC1 (centres unmarked) | - | 5.385% | 10.69% | 22.69%
Cc1ccc(CNC(=O)c2nn(C)c3c2CS(=O)(=O)CC3)o1 | 10.71% | 3.478% | -5.543% | -10.59%
Cc1nc(OCC(=O)N2CCCC2)cc(-n2cccn2)n1 | -15.51% | 0.5291% | 8.946% | -1.853%
c1cc(-c2n[nH]cc2-c2ccnc(N3CCCC3)n2)ccn1 | 17.3% | 4.52% | 3.976% | -8.021% & 9.969%
CSc1ncccc1C(=O)N1C[C@H]2CC[C@@H]1CN(CC(=O)N(C)C)C2 | - | -5.528% | -0.1206% | -
[H][C@@]12COC[C@]1([H])[C@@H](OCc1cccnc1)CN2C(=O)c1cscn1 | 17.08% | - | - | -0.3632%
NC(=O)NCC1CCCCN1C(=O)c1cccc(Cl)c1 (centres unmarked) | -13.73% | 8.092% | -2.171% | 25.92%
CCCN(CCc1ccccn1)C(=O)Cn1cc(C)cn1 | -11.69% | -0.4975% | 5.144% | 11.53%
COCC(=O)N1CCCN(Cc2cc(C(C)C)no2)CC1 | -12.1% | -1.031% | 2.594% | -14.42%
CCC(=O)N1CCC2(CC1)CC(CC(=O)N(C)C)c1ccc(F)cc12 (centres unmarked) | 7.715% | 0.5025% | -0.1238% | 35.94%
COCc1ccccc1C(=O)OCc1noc(C)n1 | 12.14% | 3.015% | 2.589% | -17.57%
Cc1ccc(CNC(c2ccccc2)c2nccn2C)cc1 (centres unmarked) | - | 3.79% | 7.846% | -
Cn1cnnc1SCCCNC(=O)Nc1ncccn1 | -66.62% | 4.663% | 0.1122% | 2.711%
COc1ccccc1OCc1nc(C(C)C)no1 | 3.635% | -26.14% | 10.06% | -33.32%
Cc1nc(C)n(C2CCCN(C(=O)c3ccc4nccn4c3)C2)n1 (centres unmarked) | -1.407% | 3.79% | 6.849% | 9.086%
CN(C)c1cccc(C(=O)NCC2(O)CCOCC2)c1 | -4.804% | 4.926% | 0.641% | -18.34%
O=C(Nc1ccccc1OCCc1ccccn1)N1CCOCC(O)C1 (centres unmarked) | -3.745% | 6.468% | 11.17% | 34.91%
Cn1nccc1C(=O)Nc1cc(C(F)(F)F)c[nH]c1=O | -6.631% | 7.059% | 1.79% | 7.836%
Cc1ccc(-c2cc(CNC(=O)NC3CCCCNC3=O)on2)cc1 (centres unmarked) | -18.26% | 8.995% | 2.982% | 6.181%
[H][C@@]12C=C[C@@]([H])(C1)[C@H](C(=O)N1CCN(c3cc(C)nc(CC)n3)CC1)C2 | -9.405% | - | - | 5.87%
Cc1ccc(CNc2cc3c(cc2Cl)NC(=O)CO3)cc1C | 1.991% | -0.8696% | -6.651% | -4.793%

Once more, the final 3:

Result for Cc1ccc(-c2cc(CNC(=O)NC3CCCCNC3=O)on2)cc1 (centres unmarked) was A: -18.26%; B: 8.995%; C: 2.982%; D: 6.181%.
Result for [H][C@@]12C=C[C@@]([H])(C1)[C@H](C(=O)N1CCN(c3cc(C)nc(CC)n3)CC1)C2 was A: -9.405%; D: 5.87%.
Result for Cc1ccc(CNc2cc3c(cc2Cl)NC(=O)CO3)cc1C was A: 1.991%; B: -0.8696%; C: -6.651%; D: -4.793%.

Source: ChEMBL document CHEMBL3988442, “University of Dundee, Small-Polar-MMV Screening Library” (2021).